Measurements: patent US9969747B2 (Constellation Pharmaceuticals, Inc., priority 2014, dated 2018)
This continues a long series; more values of the same kind are listed elsewhere.

Experiment: Oral pharmacokinetics in male Sprague Dawley rats, suspension in 0.5% Methylcellulose
Assay type: in vivo
Settings: 10 mg/Kg single oral dose, group value

SMILES: Cc1noc2c1-c1ccccc1C(c1ccc(Cl)cc1)=N[C@H]2CC(N)=O [monohydrate Form A, 2-((4S)-6-(4-chlorophenyl)-1-methyl-4H-benzo[c]isoxazolo[4,5-e]azepin-4-yl)acetamide]
- Plasma concentration, PO1 (0.250 h): 907 ng/mL
- Plasma concentration, PO1 (0.500 h): 1550 ng/mL
